Assay results reported in patent publication US20150105327.

Molecular target: recombinant human histone H2A (wild type)

Protein	H2A phosphorylation in nucleosomes, in vitro kinase assay, autoradiography
VprBP mutant at L378 (protein) MTTVVVHVDSKAELTTLLEQWEKEHGSGQDMVPILTRMSQLIEKETEEYRKGDPDPFDDRHPGRADPECMLGHLLRILFKNDDFMNALVNAYVMTSREPPLNTAACRLLLDIMPGLETAVVFQEKEGIVENLFKWAREADQPLRTYSTGLLGGAMENQDIAANYRDENSQLVAIVLRRLRELQLQEVALRQENKRPSPRKLSSEPLLPLDEEAVDMDYGDMAVDVVDGDQEEASGDMEISFHLDSGHKTSSRVNSTTKPEDGGLKKNKSAKQGDRENFRKAKQKLGFSSSDPDRMFVELSNSSWSEMSPWVIGTNYTLYPMTPAIEQRLILQYLTPLGEYQELLPIFMQLGSRELMMFYIDLKQTNDVLLTFEALKHASLLLHNKFATEFVAHGGVQKLLEIPRPSMAATGVSMCLYYLSYNQDAMERVCMHPHNVLSDVVNYTLWLMECSHASGCCHATMFFSICFSFRAVLELFDRYDGLRRLVNLISTLEILNLEDQGALLSDDEIFASRQTGKHTCMALRKYFEAHLAIKLEQVKQSLQRTEGGILVHPQPPYKACSYTHEQIVEMMEFLIEYGPAQLYWEPAEVFLKLSCVQLLLQLISIACNWKTYYARNDTVRFALDVLAILTVVPKIQLQLAESVDVLDEAGSTVSTVGISIILGVAEGEFFIHDAEIQKSALQIIINCVCGPDNRISSIGKFISGTPRRKLPQNPKSSEHTLAKMWNVVQSNNGIKVLLSLLSIKMPITDADQIRALACKALVGLSRSSTVRQIISKLPLFSSCQIQQLMKEPVLQDKRSDHVKFCKYAAELIERVSGKPLLIGTDVSLARLQKADVVAQSRISFPEKELLLLIRNHLISKGLGETATVLTKEADLPMTAASHSSAFTPVTAAASPVSLPRTPRIANGIATRLGSHAAVGASAPSAPTAHPQPRPPQGPLALPGPSYAGNSPLIGRISFIRERPSPCNGRKIRVLRQKSDHGAYSQSPAIKKQLDRHLPSPPTLDSIITEYLREQHARCKNPVATCPPFSLFTPHQCPEPKQRRQAPINFTSRLNRRASFPKYGGVDGGCFDRHLIFSRFRPISVFREANEDESGFTCCAFSARERFLMLGTCTGQLKLYNVFSGQEEASYNCHNSAITHLEPSRDGSLLLTSATWSQPLSALWGMKSVFDMKHSFTEDHYVEFSKHSQDRVIGTKGDIAHIYDIQTGNKLLTLFNPDLANNYKRNCATFNPTDDLVLNDGVLWDVRSAQAIHKFDKFNMNISGVFHPNGLEVIINTEIWDLRTFHLLHTVPALDQCRVVFNHTGTVMYGAMLQADDEDDLMEERMKSPFGSSFRTFNATDYKPIATIDVKRNIFDLCTDTKDCYLAVIENQGSMDALNMDTVCRLYEVGRQRLAEDEDEEEDQEEEEQEEEDDDEDDDDTDDLDELDTDQLLEAELEEDDNNENAGEDGDNDFSPSDEELANLLEEGEDGEDEDSDADEEVELILGDTDSSDNSDLEDDIILSLNE	mutation of L378 lying outside the conserved subdomains did not affect VprBP kinase activity
VprBP mutant at D361 (protein) MTTVVVHVDSKAELTTLLEQWEKEHGSGQDMVPILTRMSQLIEKETEEYRKGDPDPFDDRHPGRADPECMLGHLLRILFKNDDFMNALVNAYVMTSREPPLNTAACRLLLDIMPGLETAVVFQEKEGIVENLFKWAREADQPLRTYSTGLLGGAMENQDIAANYRDENSQLVAIVLRRLRELQLQEVALRQENKRPSPRKLSSEPLLPLDEEAVDMDYGDMAVDVVDGDQEEASGDMEISFHLDSGHKTSSRVNSTTKPEDGGLKKNKSAKQGDRENFRKAKQKLGFSSSDPDRMFVELSNSSWSEMSPWVIGTNYTLYPMTPAIEQRLILQYLTPLGEYQELLPIFMQLGSRELMMFYILKQTNDVLLTFEALKHLASLLLHNKFATEFVAHGGVQKLLEIPRPSMAATGVSMCLYYLSYNQDAMERVCMHPHNVLSDVVNYTLWLMECSHASGCCHATMFFSICFSFRAVLELFDRYDGLRRLVNLISTLEILNLEDQGALLSDDEIFASRQTGKHTCMALRKYFEAHLAIKLEQVKQSLQRTEGGILVHPQPPYKACSYTHEQIVEMMEFLIEYGPAQLYWEPAEVFLKLSCVQLLLQLISIACNWKTYYARNDTVRFALDVLAILTVVPKIQLQLAESVDVLDEAGSTVSTVGISIILGVAEGEFFIHDAEIQKSALQIIINCVCGPDNRISSIGKFISGTPRRKLPQNPKSSEHTLAKMWNVVQSNNGIKVLLSLLSIKMPITDADQIRALACKALVGLSRSSTVRQIISKLPLFSSCQIQQLMKEPVLQDKRSDHVKFCKYAAELIERVSGKPLLIGTDVSLARLQKADVVAQSRISFPEKELLLLIRNHLISKGLGETATVLTKEADLPMTAASHSSAFTPVTAAASPVSLPRTPRIANGIATRLGSHAAVGASAPSAPTAHPQPRPPQGPLALPGPSYAGNSPLIGRISFIRERPSPCNGRKIRVLRQKSDHGAYSQSPAIKKQLDRHLPSPPTLDSIITEYLREQHARCKNPVATCPPFSLFTPHQCPEPKQRRQAPINFTSRLNRRASFPKYGGVDGGCFDRHLIFSRFRPISVFREANEDESGFTCCAFSARERFLMLGTCTGQLKLYNVFSGQEEASYNCHNSAITHLEPSRDGSLLLTSATWSQPLSALWGMKSVFDMKHSFTEDHYVEFSKHSQDRVIGTKGDIAHIYDIQTGNKLLTLFNPDLANNYKRNCATFNPTDDLVLNDGVLWDVRSAQAIHKFDKFNMNISGVFHPNGLEVIINTEIWDLRTFHLLHTVPALDQCRVVFNHTGTVMYGAMLQADDEDDLMEERMKSPFGSSFRTFNATDYKPIATIDVKRNIFDLCTDTKDCYLAVIENQGSMDALNMDTVCRLYEVGRQRLAEDEDEEEDQEEEEQEEEDDDEDDDDTDDLDELDTDQLLEAELEEDDNNENAGEDGDNDFSPSDEELANLLEEGEDGEDEDSDADEEVELILGDTDSSDNSDLEDDIILSLNE	Mutation at either D361 or K363 that is conserved in the subdomain VI also impaired the catalytic activity
VprBP mutant at K363 (protein) MTTVVVHVDSKAELTTLLEQWEKEHGSGQDMVPILTRMSQLIEKETEEYRKGDPDPFDDRHPGRADPECMLGHLLRILFKNDDFMNALVNAYVMTSREPPLNTAACRLLLDIMPGLETAVVFQEKEGIVENLFKWAREADQPLRTYSTGLLGGAMENQDIAANYRDENSQLVAIVLRRLRELQLQEVALRQENKRPSPRKLSSEPLLPLDEEAVDMDYGDMAVDVVDGDQEEASGDMEISFHLDSGHKTSSRVNSTTKPEDGGLKKNKSAKQGDRENFRKAKQKLGFSSSDPDRMFVELSNSSWSEMSPWVIGTNYTLYPMTPAIEQRLILQYLTPLGEYQELLPIFMQLGSRELMMFYIDLQTNDVLLTFEALKHLASLLLHNKFATEFVAHGGVQKLLEIPRPSMAATGVSMCLYYLSYNQDAMERVCMHPHNVLSDVVNYTLWLMECSHASGCCHATMFFSICFSFRAVLELFDRYDGLRRLVNLISTLEILNLEDQGALLSDDEIFASRQTGKHTCMALRKYFEAHLAIKLEQVKQSLQRTEGGILVHPQPPYKACSYTHEQIVEMMEFLIEYGPAQLYWEPAEVFLKLSCVQLLLQLISIACNWKTYYARNDTVRFALDVLAILTVVPKIQLQLAESVDVLDEAGSTVSTVGISIILGVAEGEFFIHDAEIQKSALQIIINCVCGPDNRISSIGKFISGTPRRKLPQNPKSSEHTLAKMWNVVQSNNGIKVLLSLLSIKMPITDADQIRALACKALVGLSRSSTVRQIISKLPLFSSCQIQQLMKEPVLQDKRSDHVKFCKYAAELIERVSGKPLLIGTDVSLARLQKADVVAQSRISFPEKELLLLIRNHLISKGLGETATVLTKEADLPMTAASHSSAFTPVTAAASPVSLPRTPRIANGIATRLGSHAAVGASAPSAPTAHPQPRPPQGPLALPGPSYAGNSPLIGRISFIRERPSPCNGRKIRVLRQKSDHGAYSQSPAIKKQLDRHLPSPPTLDSIITEYLREQHARCKNPVATCPPFSLFTPHQCPEPKQRRQAPINFTSRLNRRASFPKYGGVDGGCFDRHLIFSRFRPISVFREANEDESGFTCCAFSARERFLMLGTCTGQLKLYNVFSGQEEASYNCHNSAITHLEPSRDGSLLLTSATWSQPLSALWGMKSVFDMKHSFTEDHYVEFSKHSQDRVIGTKGDIAHIYDIQTGNKLLTLFNPDLANNYKRNCATFNPTDDLVLNDGVLWDVRSAQAIHKFDKFNMNISGVFHPNGLEVIINTEIWDLRTFHLLHTVPALDQCRVVFNHTGTVMYGAMLQADDEDDLMEERMKSPFGSSFRTFNATDYKPIATIDVKRNIFDLCTDTKDCYLAVIENQGSMDALNMDTVCRLYEVGRQRLAEDEDEEEDQEEEEQEEEDDDEDDDDTDDLDELDTDQLLEAELEEDDNNENAGEDGDNDFSPSDEELANLLEEGEDGEDEDSDADEEVELILGDTDSSDNSDLEDDIILSLNE	Mutation at either D361 or K363 that is conserved in the subdomain VI also impaired the catalytic activity
